Measurements reported in PubChem BioAssay AID1224830 (NIAID, 2016).
Purpose: 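Host factors that control LPS-induced TNF expression in human macrophages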 (primary screen). Cells: human THP-1 monocytic leukaemia cells, TNF dual-luciferase reporter clone, PMA-differentiated to macrophage-like cells. Reagents: siRNA pool against human genes, 50 nM. Timing: LPS for 4 h, given about 3 days after siRNA transfection. Conditions: bacterial LPS (TLR4 ligand), 10 ng/ml. Measurement: 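TNF firefly reporter luminescence divided by renilla, normalised to the plate median, then turned into a robust z-score for each replicate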. Scale: TNF reporter robust z-score: higher = stronger TNF reporter response to LPS. Hit rule: 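a well is active when its z-score exceeds 2.8 or falls below -1.5; control wells carry no call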.
In all, the deposit lists about 18,000 reagents; shown is a random part of them. About 2,900 of them (16%) count as active. 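Calls are made per well; low scores hint the gene aids the LPS response, high scores that it dampens it.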 Reagents against one gene are numbered here. Repeated entries: four replicate wells of each siRNA pool.

With PTPN20 (protein tyrosine phosphatase non-receptor type 20) #1, how do the results read?
TNF reporter robust z-score: -0.48; Call: inactive

How did the screen score PTPN20 (protein tyrosine phosphatase non-receptor type 20) #1?
TNF reporter robust z-score: 0.93; Call: inactive

With PTPN20 (protein tyrosine phosphatase non-receptor type 20) #1, what does the deposit list?
TNF reporter robust z-score: 3.01; Call: active

For PTPN20 (protein tyrosine phosphatase non-receptor type 20) #1, what does the deposit list?
TNF reporter robust z-score: -0.62; Call: inactive

With PTPN20 (protein tyrosine phosphatase non-receptor type 20) #2, what does the deposit list?
TNF reporter robust z-score: 0.1; Call: inactive

For PTPN20 (protein tyrosine phosphatase non-receptor type 20) #2, what was measured?
TNF reporter robust z-score: 0.25; Call: inactive

With PTPN20 (protein tyrosine phosphatase non-receptor type 20) #2, how do the results read?
TNF reporter robust z-score: -1.12; Call: inactive

With PTPN20 (protein tyrosine phosphatase non-receptor type 20) #2, what was measured?
TNF reporter robust z-score: -0.1; Call: inactive

What did the screen give for LRRC37A3 (leucine rich repeat containing 37 member A3)?
TNF reporter robust z-score: -1.47; Call: inactive

For LRRC37A3 (leucine rich repeat containing 37 member A3), how do the results read?
TNF reporter robust z-score: -0.33; Call: inactive

Which result is listed for LRRC37A3 (leucine rich repeat containing 37 member A3)?
TNF reporter robust z-score: -0.56; Call: inactive

With LRRC37A3 (leucine rich repeat containing 37 member A3), what does the deposit list?
TNF reporter robust z-score: -1.07; Call: inactive

How did the screen score LMBR1 (limb development membrane protein 1)?
TNF reporter robust z-score: -0.75; Call: inactive

With LMBR1 (limb development membrane protein 1), what was measured?
TNF reporter robust z-score: -0.12; Call: inactive

What is on record for LMBR1 (limb development membrane protein 1)?
TNF reporter robust z-score: 0.33; Call: inactive

How did the screen score LMBR1 (limb development membrane protein 1)?
TNF reporter robust z-score: 2.82; Call: active

Which result is listed for OR8U9 (olfactory receptor family 8 subfamily U member 9)?
TNF reporter robust z-score: -0.35; Call: inactive

With OR8U9 (olfactory receptor family 8 subfamily U member 9), what was measured?
TNF reporter robust z-score: -0.07; Call: inactive

What is on record for OR8U9 (olfactory receptor family 8 subfamily U member 9)?
TNF reporter robust z-score: -0.01; Call: inactive

What is on record for OR8U9 (olfactory receptor family 8 subfamily U member 9)?
TNF reporter robust z-score: 0.37; Call: inactive

What is on record for SLIT1 (slit guidance ligand 1)?
TNF reporter robust z-score: 1.52; Call: inactive

For SLIT1 (slit guidance ligand 1), how do the results read?
TNF reporter robust z-score: -0.17; Call: inactive

What did the screen give for SLIT1 (slit guidance ligand 1)?
TNF reporter robust z-score: -0.08; Call: inactive

Which result is listed for SLIT1 (slit guidance ligand 1)?
TNF reporter robust z-score: -0.5; Call: inactive

How did the screen score MMP28 (matrix metallopeptidase 28)?
TNF reporter robust z-score: -0.64; Call: inactive

What did the screen give for MMP28 (matrix metallopeptidase 28)?
TNF reporter robust z-score: -0.53; Call: inactive

With MMP28 (matrix metallopeptidase 28), how do the results read?
TNF reporter robust z-score: -0.79; Call: inactive

With MMP28 (matrix metallopeptidase 28), what does the deposit list?
TNF reporter robust z-score: 1.11; Call: inactive

For PURB (purine rich element binding protein B), what was measured?
TNF reporter robust z-score: 0.5; Call: inactive

What did the screen give for PURB (purine rich element binding protein B)?
TNF reporter robust z-score: 1.17; Call: inactive

With PURB (purine rich element binding protein B), what does the deposit list?
TNF reporter robust z-score: 0.48; Call: inactive

What is on record for PURB (purine rich element binding protein B)?
TNF reporter robust z-score: 0.68; Call: inactive

With C1QTNF7 (C1q and TNF related 7), what does the deposit list?
TNF reporter robust z-score: 0.34; Call: inactive

How did the screen score C1QTNF7 (C1q and TNF related 7)?
TNF reporter robust z-score: -0.79; Call: inactive

How did the screen score C1QTNF7 (C1q and TNF related 7)?
TNF reporter robust z-score: 0.51; Call: inactive

What is on record for C1QTNF7 (C1q and TNF related 7)?
TNF reporter robust z-score: -0.5; Call: inactive

With ERI3 (ERI1 exoribonuclease family member 3), what does the deposit list?
TNF reporter robust z-score: -0.99; Call: inactive

With ERI3 (ERI1 exoribonuclease family member 3), how do the results read?
TNF reporter robust z-score: -0.95; Call: inactive

For ERI3 (ERI1 exoribonuclease family member 3), how do the results read?
TNF reporter robust z-score: -0.54; Call: inactive

With ERI3 (ERI1 exoribonuclease family member 3), what does the deposit list?
TNF reporter robust z-score: -0.83; Call: inactive

With INTS9 (integrator complex subunit 9), what does the deposit list?
TNF reporter robust z-score: -0.07; Call: inactive

With INTS9 (integrator complex subunit 9), what does the deposit list?
TNF reporter robust z-score: 0.98; Call: inactive

For INTS9 (integrator complex subunit 9), how do the results read?
TNF reporter robust z-score: -0.5; Call: inactive

What is on record for INTS9 (integrator complex subunit 9)?
TNF reporter robust z-score: 0.37; Call: inactive

How did the screen score OBSL1 (obscurin like cytoskeletal adaptor 1)?
TNF reporter robust z-score: 2.27; Call: inactive

For OBSL1 (obscurin like cytoskeletal adaptor 1), what was measured?
TNF reporter robust z-score: 1.91; Call: inactive

For OBSL1 (obscurin like cytoskeletal adaptor 1), what does the deposit list?
TNF reporter robust z-score: 2.95; Call: active

What did the screen give for OBSL1 (obscurin like cytoskeletal adaptor 1)?
TNF reporter robust z-score: 3.22; Call: active
